{"source": "patent US7371413B2", "about": "“Antioxidant and anti-inflammatory activity of compounds and preparations from African nutmeg seeds” (Rutgers, The State University, priority 2003, dated 2008)", "key": {"[1]": {"assay": "DPPH free radical scavenging assay", "assay_type": "biochemical", "conditions": "DPPH 1.0×10^−4 M in ethanol, half an hour, 517 nm", "method": "Kombo butter, kombo butter acid extract, and purified sargaquinoic acid (KB-1), sargachromenol (KB-2), and sargahydroquinoic acid (KB-3) were tested for antioxidant activity by both the 2,2′-diphenylpicrylydrazyl (DPPH) and the 2,2′-azinobis-(3-ethylbenzothiazoline-6-sulfonic acid) (ABTS) free radical scavenging assays. A solution of DPPH in ethanol was prepared at a final concentration of 1.0×10^−4 M. Each of the potential actives under investigation was added to the DPPH solution at a number of different concentrations. The solutions were mixed, shaken vigorously and kept in the dark for half an hour. The absorbance of the samples was then measured at 517 nm with an HP Model 8453 spectrophotometer using a blank of ethanol without DPPH. All tests were run in triplicate and averaged. Differences among individual measurements were always less than 5% [26]."}, "[2]": {"test_system": "TPA-induced mouse ear edema", "conditions": "compounds isolated from Roldana barba-johannis; compared with α-tocopherol; cited from earlier work"}, "[3]": {"test_system": "iNOS protein expression in LPS-induced RAW 264.7 cells", "assay": "Inhibition of LPS-induced iNOS protein expression (Western blotting)", "assay_type": "cell-based, mouse", "conditions": "treatment for 18 hrs, LPS 0.5 μg/mL", "from_the_text": "(§1) To confirm whether the inhibition of NO production by kombo butter, kombo butter acid extract, and purified sargaquinoic acid (KB-1), sargachromenol (KB-2), and sargahydroquinoic acid (KB-3) was due to reduced enzymatic activity or protein expression of inducible nitric oxide synthase (iNOS), we investigated the effect of kombo butter and its constituents on iNOS protein expression by Western blotting. In addition to iNOS, we also studied the effect of kombo butter and its constituents on the expression of cyclooxygenase-2 (COX-2), an enzyme critical to the production of inflammatory prostaglandins and known to be activated in LPS-stimulated macrophages.\n(§2) RAW 264.7 mouse macrophage cells were cultured in Dulbecco's Modified Eagle Medium (DMEM) supplemented with 15% fetal bovine serum (FBS) and an antibiotic and antimycotic mixture. Cell suspensions of 50,000 cells/well were cultured in quadruplicate in flat bottom microtiter plates for 12 hrs. […]\n(§3) An equal amount of protein (40 μg) from each sample was resolved by SDS-polyacrylamide gel electrophoresis. […] Specific bands were detected using enhanced chemiluminescence's detection system (Amersham-Pharmacia Biotech, NJ, USA) and the membrane was exposed to X-ray film. […]"}, "[4]": {"assay": "ABTS free radical scavenging assay (TEAC)", "assay_type": "biochemical", "conditions": "Trolox equivalent of a 1.0 mM solution", "method": "For the ABTS assay, a solution of ABTS in water was prepared at a final concentration of 7 mM. The ABTS radical cation (ABTS^.+) was produced by adding solid potassium persulfate to the ABTS solution sufficient to yield a final concentration of 2.45 mM potassium persulfate in the mixture and allowing the mixture to stand in the dark at room temperature for 12-16 hours before use. The ABTS^.+ solution was diluted with methanol to an absorbance of 0.70 at 734 nm. Stock solutions of each of the potential actives under investigation were diluted with ethanol to ensure 20-80% inhibition of the radical cation upon introduction of a 10 μL aliquot of the active solution to 1 ml of diluted ABTS^.+ solution. The absorbance was measured beginning exactly 1 min after initial mixing and thereafter up to 6 min. Trolox was used as the standard, and the activity of each of the potential actives was expressed as a Trolox Equivalent Antioxidant Capacity (TEAC) value. The TEAC value represents the millimolar concentration of a Trolox solution having an equivalent antioxidant capacity to a 1.0 mM solution of the potential active under investigation."}, "[5]": {"conditions": "compared with α-tocopherol and indomethacin; cited from earlier work"}, "[6]": {"test_system": "COX-2 protein expression in LPS-induced RAW 264.7 cells", "assay": "Inhibition of LPS-induced COX-2 protein expression (Western blotting)", "assay_type": "cell-based, mouse", "conditions": "treatment for 18 hrs, LPS 0.5 μg/mL", "from_the_text": "as §1, §2, §3"}}, "note": "At least one structure is not confirmed: it was looked up by name or label, or the drawing left a doubt.", "data": [{"smiles": "CC(C)=CCC/C(=C/CC/C(C)=C/CC/C(C)=C/Cc1cc(O)cc(C)c1O)C(=O)O", "note": "[Sargahydroquinoic acid, sargahydroquinoic acid]", "values": [{"measurement": "DPPH free radical scavenging IC50", "setting": "[1]", "result": 9.0, "unit": "µg/mL"}, {"measurement": "anti-inflammatory activity", "setting": "[2]", "result": "on par with that of a-tocopherol"}, {"measurement": "inhibition of iNOS protein expression", "setting": "[3]", "result": "markedly inhibited"}, {"measurement": "TEAC", "setting": "[4]", "result": 1.33, "unit": "mM"}, {"measurement": "antioxidant activity (DPPH radical scavenging)", "setting": "[5]", "result": "better than those of either α-tocopherol or indomethacin"}, {"measurement": "inhibition of COX-2 protein expression", "setting": "[6]", "result": "markedly inhibited"}]}]}
